Results are given in words; binding and its absence hold for the method and conditions named. In cells and extracts the contact can be indirect. A yes stands for co-enrichment or nearness to the bait. Other partners may have been found. Sequences can lack the tags named with a protein.
The substances below were run against T1, GST-Irga6 (mouse) (UniProt Q9QZ85) (assay: affinity purification with mass spectrometry; GST-Irga6 on Glutathione Sepharose 4B beads; detergent lysate of IFNγ-induced L929 fibroblasts infected 2 h with T. gondii RH-YFP; o/n at 4°C; differential silver-stained bands analysed by MS; GST-loaded beads in parallel; only the target purified).
T1 sequence: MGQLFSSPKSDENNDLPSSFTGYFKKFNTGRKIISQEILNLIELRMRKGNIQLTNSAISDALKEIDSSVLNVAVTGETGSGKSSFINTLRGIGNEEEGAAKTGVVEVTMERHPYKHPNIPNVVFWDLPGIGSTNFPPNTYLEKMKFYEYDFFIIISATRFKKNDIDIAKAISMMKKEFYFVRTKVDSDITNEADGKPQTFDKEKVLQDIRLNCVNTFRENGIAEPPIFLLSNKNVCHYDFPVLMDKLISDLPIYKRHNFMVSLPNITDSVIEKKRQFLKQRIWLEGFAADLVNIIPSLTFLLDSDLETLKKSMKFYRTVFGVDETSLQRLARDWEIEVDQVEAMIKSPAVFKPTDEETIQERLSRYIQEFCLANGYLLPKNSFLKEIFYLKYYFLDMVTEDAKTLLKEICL
For ROP5A of T. gondii strain RH-YFP, the binding was “binds”. For ROP5C of T. gondii strain RH-YFP, the binding was “binds”. For ROP5B of T. gondii strain RH-YFP, the binding was “binds”.

Source: paper PMC3393671
